Measured values as given in article PMC8211685.
Results are given in words; binding and its absence hold for the method and conditions named. Binding seen in cells or lysates may run through a third protein. Some binding calls cover weakened binding; strength is not graded here.

Chains of the proteins cited; added tags and fusions are not shown. Residues count along the entry.
UniProt Q94AQ8, residues 18-348: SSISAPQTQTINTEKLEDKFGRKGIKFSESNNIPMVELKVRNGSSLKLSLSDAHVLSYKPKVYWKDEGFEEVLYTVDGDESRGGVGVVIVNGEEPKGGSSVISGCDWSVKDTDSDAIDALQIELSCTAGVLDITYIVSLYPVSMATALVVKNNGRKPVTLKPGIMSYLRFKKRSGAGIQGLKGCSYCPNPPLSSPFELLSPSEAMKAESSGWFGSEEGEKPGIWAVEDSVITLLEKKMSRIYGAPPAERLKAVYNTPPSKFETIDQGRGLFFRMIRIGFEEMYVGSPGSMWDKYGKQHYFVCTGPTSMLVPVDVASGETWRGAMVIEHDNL
UniProt Q9LU21, residues 49-204: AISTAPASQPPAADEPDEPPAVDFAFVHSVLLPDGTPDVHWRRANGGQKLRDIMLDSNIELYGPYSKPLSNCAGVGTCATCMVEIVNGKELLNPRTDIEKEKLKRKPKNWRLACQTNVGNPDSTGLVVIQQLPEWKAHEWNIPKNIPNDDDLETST

Target: T1, NDH-dependent Cyclic Electron Flow 5 (NDF5) (Arabidopsis thaliana (endogenous in leaves)) (UniProt Q9C503)
T1 sequence: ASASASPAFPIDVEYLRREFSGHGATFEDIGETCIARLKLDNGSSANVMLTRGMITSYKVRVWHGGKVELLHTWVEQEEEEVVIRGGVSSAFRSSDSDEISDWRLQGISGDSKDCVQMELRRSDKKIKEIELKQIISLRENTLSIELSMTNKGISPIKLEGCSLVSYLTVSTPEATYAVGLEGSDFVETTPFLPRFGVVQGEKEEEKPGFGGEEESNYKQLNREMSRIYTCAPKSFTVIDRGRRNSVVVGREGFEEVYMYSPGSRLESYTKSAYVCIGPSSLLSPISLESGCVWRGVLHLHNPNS
Assay: co-sedimentation; sucrose density gradient (5–40%) ultracentrifugation, 24 h at 150,000g, of chloroplast membranes solubilized with 0.9% n-dodecyl-β-D-maltoside; 25 mM MES-NaOH pH 6.8, 5 mM MgCl2, 10 mM NaCl, 0.02% n-dodecyl-β-D-maltoside; 30 fractions, immunoblots; Arabidopsis wild type and pnsb1, pnsb4, pnsb5, pnsl3, crr3 and lhca6 mutants

Substance | binding
PnsB2 (from UniProt Q94AQ8 18-348) | binds
PnsB3 (from UniProt Q9LU21 49-204) | binds
